Experimental data from the supplement of paper PMC4604168 (melanoma cell lines).
Some of the results follow. Repeats are few or missing, and single values can be far off.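 The apoptosis fraction was the count of cleaved-PARP antibody-stained nuclei relative to all DNA-stained nuclei, imaged in 1,536-well plates. Screening doses were set so most cells survived, and baseline and induced cleaved-PARP levels vary greatly across cell lines.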

How the values were obtained:
Assay in all cases: cleaved PARP positive nuclei fraction relative to DMSO control; melanoma cells; higher = more apoptosis
Settings in all cases: library dose: low library concentration; 72 h
[1] = tested on: WM115
[2] = tested on: WM1716
[3] = tested on: WM1745
[4] = tested on: WM3526
[5] = tested on: WM3619
[6] = tested on: WM451Lu

Compound | cleaved PARP positive nuclei fraction [1] [%] | cleaved PARP positive nuclei fraction [2] [%] | cleaved PARP positive nuclei fraction [3] [%] | cleaved PARP positive nuclei fraction [4] [%] | cleaved PARP positive nuclei fraction [5] [%] | cleaved PARP positive nuclei fraction [6] [%]
O=C1NC(=O)/C(=C/c2ccc(-c3ccc(F)cc3O)o2)S1 + CC(C)CCN1c2nc(Nc3cc(F)c(O)c(F)c3)ncc2N(C)C(=O)C1C [BID1870] (first compound 1 µM, partner dose 0.2 µM) | 70.9 | 4.96 | 104 | 45.3 | 93 | 53.3
CCc1ccc(CCOc2ccc(CC3SC(=O)NC3=O)cc2)nc1 (configuration not stated) [pioglitazone] + Cn1cc(/C=C2\C(=O)Nc3cccnc32)c2ccccc21 [GW441756] (first compound 2 µM, partner dose 0.4 µM) | 46.6 | 47.5 | 104 | 100 | 78 | 23.8
O=C(Nc1ccccc1)c1cc([N+](=O)[O-])ccc1Cl + COc1cc(N2CCC(N3CCN(C)CC3)CC2)ccc1Nc1ncc(Cl)c(Nc2ccccc2S(=O)(=O)C(C)C)n1 [NVP-TAE684] (first compound 2 µM, partner dose 0.08 µM) | 93.9 | 204 | 241 | 72.2 | 85 | 62.5
COc1ccc(COc2ccc(Cc3cnc(N)nc3N)cc2OC)cc1 + c1cc(-c2cnn3cc(-c4ccc(OCCN5CCCCC5)cc4)cnc23)ccn1 [Dorsomorphin] (first compound 1 µM, partner dose 0.4 µM) | 125 | 50.6 | 132 | 36.6 | 91.7 | 58.5
O=C(O)c1ccc(-c2c[nH]c3ncc(-c4ccccc4)cc23)cc1C1CCCC1 + COc1cc2ncnc(Nc3ccc(Oc4ccccc4)cc3)c2cc1OC [SrcI1] (first compound 0.16 µM, partner dose 2 µM) | 95.2 | 104 | 106 | 75.9 | 178 | 72.4
NCC(=O)Nc1ccc(-n2nc(C(F)(F)F)cc2-c2ccc3c(ccc4ccccc43)c2)cc1 + Cn1cc(/C=C2\C(=O)Nc3cccnc32)c2ccccc21 [GW441756] (first compound 1 µM, partner dose 0.4 µM) | 231 | 89.1 | 117 | 349 | 68.9 | 533
O=C(O)c1ccc(-c2c[nH]c3ncc(-c4ccccc4)cc23)cc1C1CCCC1 + CN(NC(=O)CC(=O)NN(C)C(=S)c1ccccc1)C(=S)c1ccccc1 [STA4783] (first compound 0.16 µM, partner dose 0.006 µM) | 353 | 126 | 198 | 69.6 | 203 | 124
CCc1ccc(CCOc2ccc(CC3SC(=O)NC3=O)cc2)nc1 (configuration not stated) [pioglitazone] + COc1cc(N2CCC(N3CCN(C)CC3)CC2)ccc1Nc1ncc(Cl)c(Nc2ccccc2S(=O)(=O)C(C)C)n1 [NVP-TAE684] (first compound 2 µM, partner dose 0.08 µM) | 245 | 110 | 128 | 102 | 84.4 | 131
CN(C)S(=O)(=O)c1ccc2c(c1)/C(=C/c1cc3c([nH]1)CCCC3)C(=O)N2 + CCc1ccc(CCOc2ccc(CC3SC(=O)NC3=O)cc2)nc1 [pioglitazone] (first compound 0.4 µM, partner dose 2 µM) | 281 | 55.5 | 122 | 136 | 298 | 121
COc1ccc(-c2ccc3c(N4CCOCC4)nc(N4C[C@@H](C)O[C@@H](C)C4)nc3n2)cc1CO + COc1ccc(COc2ccc(Cc3cnc(N)nc3N)cc2OC)cc1 [GW2580] (first compound 0.02 µM, partner dose 1 µM) | 49.8 | 67.9 | 106 | 384 | 94.9 | 92.2
c1cc(-c2cnn3cc(-c4ccc(OCCN5CCCCC5)cc4)cnc23)ccn1 [Dorsomorphin] + O=c1cc(-c2cccc3c2Sc2ccccc2S3)oc(N2CCOCC2)c1 [KU55933] (first compound 0.4 µM, partner dose 1 µM) | 72.5 | 59.6 | 119 | 64.6 | 78.6 | 108
O=S(=O)(c1ccccc1)N(CC(F)(F)F)c1ccc(C(O)(C(F)(F)F)C(F)(F)F)cc1 + CC(C)CCN1c2nc(Nc3cc(F)c(O)c(F)c3)ncc2N(C)C(=O)C1C [BID1870] (first compound 1.4 µM, partner dose 0.2 µM) | 176 | 128 | 105 | 83.5 | 98.6 | 61.7
Cc1cc([N+](=O)[O-])ccc1NS(=O)(=O)c1cc(Cl)ccc1Cl + CC(C)CCN1c2nc(Nc3cc(F)c(O)c(F)c3)ncc2N(C)C(=O)C1C [BID1870] (first compound 1 µM, partner dose 0.2 µM) | 232 | 92.7 | 80.4 | 60.1 | 88.2 | 275
COc1cc2c(Oc3ccc4[nH]c(C)cc4c3F)ncnc2cc1OCCCN1CCCC1 [cediranib] + Oc1cc(-c2nc(-c3ccccc3)[nH]c2-c2ccncc2)ccc1Cl [L779450] (first compound 0.4 µM, partner dose 0.2 µM) | 259 | 75.8 | 137 | 89.8 | 66.1 | 83.5
CCc1ccc(CCOc2ccc(CC3SC(=O)NC3=O)cc2)nc1 (configuration not stated) [pioglitazone] + COC(=O)c1sccc1S(=O)(=O)Nc1ccc(Nc2ccccc2)cc1OC [GSK0660] (first compound 2 µM, partner dose 1 µM) | 54.8 | 111 | 93.4 | 131 | 87.3 | 342
O=C(O)C(=O)Nc1sc2c(c1C(=O)O)CCNC2 + O=c1cc(-c2cccc3c2Sc2ccccc2S3)oc(N2CCOCC2)c1 [KU55933] (first compound 1.66667 µM, partner dose 1 µM) | 138 | 70.9 | 119 | 133 | 74.4 | 381
COc1ccc(COc2ccc(Cc3cnc(N)nc3N)cc2OC)cc1 + CC(C)CCN1c2nc(Nc3cc(F)c(O)c(F)c3)ncc2N(C)C(=O)C1C [BID1870] (first compound 1 µM, partner dose 0.2 µM) | 108 | 56 | 87.2 | 128 | 62.2 | 53.1
N#Cc1c(O)c2c(-c3ccc(-c4ccccc4O)cc3)csc2[nH]c1=O + Oc1cc(-c2nc(-c3ccccc3)[nH]c2-c2ccncc2)ccc1Cl [L779450] (first compound 2 µM, partner dose 0.2 µM) | 166 | 113 | 296 | 72.7 | 71.2 | 222
O=S(=O)(c1ccccc1)N(CC(F)(F)F)c1ccc(C(O)(C(F)(F)F)C(F)(F)F)cc1 + Cc1cc([N+](=O)[O-])ccc1NS(=O)(=O)c1cc(Cl)ccc1Cl [FH535] (first compound 1.4 µM, partner dose 1 µM) | 154 | 85.5 | 136 | 77.6 | 79.8 | 137
O=C(O)c1ccc(-c2c[nH]c3ncc(-c4ccccc4)cc23)cc1C1CCCC1 + Cn1cc(/C=C2\C(=O)Nc3cccnc32)c2ccccc21 [GW441756] (first compound 0.16 µM, partner dose 0.4 µM) | 437 | 928 | 96.2 | 140 | 77.3 | 60.7
NCC(=O)Nc1ccc(-n2nc(C(F)(F)F)cc2-c2ccc3c(ccc4ccccc43)c2)cc1 + CCc1ccc(CCOc2ccc(CC3SC(=O)NC3=O)cc2)nc1 [pioglitazone] (first compound 1 µM, partner dose 2 µM) | 75.7 | 125 | 114 | 162 | 81.4 | 388
N#Cc1c(O)c2c(-c3ccc(-c4ccccc4O)cc3)csc2[nH]c1=O + Oc1nc(-c2ccc(C(F)(F)F)cc2)nc2c1CSCC2 [XAV939] (first compound 2 µM, partner dose 2 µM) | 90.2 | 62.6 | 113 | 66.5 | 102 | 55.1
O=C(Nc1ccccc1)c1cc([N+](=O)[O-])ccc1Cl + Oc1cc(-c2nc(-c3ccccc3)[nH]c2-c2ccncc2)ccc1Cl [L779450] (first compound 2 µM, partner dose 0.2 µM) | 137 | 78.9 | 109 | 51.5 | 104 | 63.2
N#Cc1c(O)c2c(-c3ccc(-c4ccccc4O)cc3)csc2[nH]c1=O + O=S(=O)(c1ccccc1)N(CC(F)(F)F)c1ccc(C(O)(C(F)(F)F)C(F)(F)F)cc1 [T0901317] (first compound 2 µM, partner dose 1.4 µM) | 52 | 96 | 120 | 308 | 105 | 207
COc1ccc(-c2ccc3c(N4CCOCC4)nc(N4C[C@@H](C)O[C@@H](C)C4)nc3n2)cc1CO + c1cc(-c2cnn3cc(-c4ccc(OCCN5CCCCC5)cc4)cnc23)ccn1 [Dorsomorphin] (first compound 0.02 µM, partner dose 0.4 µM) | 45.9 | 78.6 | 123 | 69.7 | 79.1 | 72.7
NCC(=O)Nc1ccc(-n2nc(C(F)(F)F)cc2-c2ccc3c(ccc4ccccc43)c2)cc1 + N#Cc1c(O)c2c(-c3ccc(-c4ccccc4O)cc3)csc2[nH]c1=O [A769662] (first compound 1 µM, partner dose 2 µM) | 71.4 | 76 | 99.7 | 115 | 120 | 104
Oc1nc(-c2ccc(C(F)(F)F)cc2)nc2c1CSCC2 + CC(C)CCN1c2nc(Nc3cc(F)c(O)c(F)c3)ncc2N(C)C(=O)C1C [BID1870] (first compound 2 µM, partner dose 0.2 µM) | 104 | 244 | 150 | 125 | 108 | 65.9

Quoted from the listing.
Under cleaved PARP positive nuclei fraction [1] [%], Cc1cc([N+](=O)[O-])ccc1NS(=O)(=O)c1cc(Cl)ccc1Cl + CC(C)CCN1c2nc(Nc3cc(F)c(O)c(F)c3)ncc2N(C)C(=O)C1C [BID1870] (first compound 1 µM, partner dose 0.2 µM) has the entry 232
Under cleaved PARP positive nuclei fraction [6] [%], O=C(O)c1ccc(-c2c[nH]c3ncc(-c4ccccc4)cc23)cc1C1CCCC1 + Cn1cc(/C=C2\C(=O)Nc3cccnc32)c2ccccc21 [GW441756] (first compound 0.16 µM, partner dose 0.4 µM) has the entry 60.7
